# Data taken from the supplement of paper PMC8728848.
# The list shows a part of the results.
# Experiments:
# Assay in all cases: glycan array binding signal (z-score within array); higher = stronger binding
# Details in all cases: glycan notation: IUPAC condensed, linker removed
# [1] = molecular target: Gal(b1-4)GlcNAc(b1-3)Gal(b1-4)GlcNAc(b1-3)Gal(b1-4)GlcNAc(b1-3)Gal(b1-4)GlcNAc(b1-2)Man(a1-3)[Gal(b1-4)GlcNAc(b1-3)Gal(b1-4)GlcNAc(b1-3)Gal(b1-4)GlcNAc(b1-3)Gal(b1-4)GlcNAc(b1-2)Man(a1-6)]Man(b1-4)GlcNAc(b1-4)[Fuc(a1-6)]GlcNAc
# Procedure, shortened: (§1)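 Arrays were curated from the Consortium for Functional Glycomics database, 3228 in total, and kept only where the protein sequence was available. Binding is expressed as a within-array Z-score. This score was averaged across arrays of the same protein sequence at different concentrations or buffers and across linkers, and negative values can be read as non-binding.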
# [2] = molecular target: Gal(b1-4)GlcNAc(b1-3)Gal(b1-4)GlcNAc(b1-3)Gal(b1-4)GlcNAc(b1-3)Gal(b1-4)GlcNAc(b1-2)[Gal(b1-4)GlcNAc(b1-3)Gal(b1-4)GlcNAc(b1-3)Gal(b1-4)GlcNAc(b1-3)Gal(b1-4)GlcNAc(b1-6)]Man(a1-6)[Gal(b1-4)GlcNAc(b1-3)Gal(b1-4)GlcNAc(b1-3)Gal(b1-4)GlcNAc(b1-3)Gal(b1-4)GlcNAc(b1-2)Man(a1-3)]Man(b1-4)GlcNAc(b1-4)[Fuc(a1-6)]GlcNAc
# Procedure, shortened: as §1
# [3] = molecular target: Gal(b1-4)GlcNAc(b1-3)Gal(b1-4)GlcNAc(b1-3)Gal(b1-4)GlcNAc(b1-3)Gal(b1-4)GlcNAc(b1-3)Gal(b1-4)GlcNAc(b1-2)Man(a1-3)[Gal(b1-4)GlcNAc(b1-3)Gal(b1-4)GlcNAc(b1-3)Gal(b1-4)GlcNAc(b1-3)Gal(b1-4)GlcNAc(b1-3)Gal(b1-4)GlcNAc(b1-2)Man(a1-6)]Man(b1-4)GlcNAc(b1-4)GlcNAc
# Procedure, shortened: as §1
# [4] = molecular target: Gal(b1-4)GlcNAc(b1-3)Gal(b1-4)GlcNAc(b1-3)Gal(b1-4)GlcNAc(b1-3)Gal(b1-4)GlcNAc(b1-3)Gal(b1-4)GlcNAc(b1-2)Man(a1-3)[Gal(b1-4)GlcNAc(b1-3)Gal(b1-4)GlcNAc(b1-3)Gal(b1-4)GlcNAc(b1-3)Gal(b1-4)GlcNAc(b1-3)Gal(b1-4)GlcNAc(b1-2)Man(a1-6)]Man(b1-4)GlcNAc(b1-4)[Fuc(a1-6)]GlcNAc
# Procedure, shortened: as §1
# [5] = molecular target: Gal(b1-4)GlcNAc(b1-3)Gal(b1-4)GlcNAc(b1-3)Gal(b1-4)GlcNAc(b1-3)Gal(b1-4)GlcNAc(b1-3)Gal(b1-4)GlcNAc(b1-2)[Gal(b1-4)GlcNAc(b1-3)Gal(b1-4)GlcNAc(b1-3)Gal(b1-4)GlcNAc(b1-3)Gal(b1-4)GlcNAc(b1-3)Gal(b1-4)GlcNAc(b1-6)]Man(a1-6)[Gal(b1-4)GlcNAc(b1-3)Gal(b1-4)GlcNAc(b1-3)Gal(b1-4)GlcNAc(b1-3)Gal(b1-4)GlcNAc(b1-3)Gal(b1-4)GlcNAc(b1-2)Man(a1-3)]Man(b1-4)GlcNAc(b1-4)[Fuc(a1-6)]GlcNAc
# Procedure, shortened: as §1
# [6] = molecular target: Gal(b1-4)GlcNAc(b1-3)Gal(b1-4)GlcNAc(b1-3)Gal(b1-4)GlcNAc(b1-3)Gal(b1-4)GlcNAc(b1-3)Gal(b1-4)GlcNAc(b1-3)Gal(b1-4)GlcNAc(b1-2)Man(a1-3)[Gal(b1-4)GlcNAc(b1-3)Gal(b1-4)GlcNAc(b1-3)Gal(b1-4)GlcNAc(b1-3)Gal(b1-4)GlcNAc(b1-3)Gal(b1-4)GlcNAc(b1-3)Gal(b1-4)GlcNAc(b1-2)Man(a1-6)]Man(b1-4)GlcNAc(b1-4)GlcNAc
# Procedure, shortened: as §1
# [7] = molecular target: Gal(b1-4)GlcNAc(b1-3)Gal(b1-4)GlcNAc(b1-3)GalNAc
# Procedure, shortened: as §1
# [8] = molecular target: Gal(b1-4)GlcNAc(b1-3)Gal(b1-4)GlcNAc(b1-3)[Gal(b1-4)GlcNAc(b1-3)Gal(b1-4)GlcNAc(b1-6)]GalNAc
# Procedure, shortened: as §1
# [9] = molecular target: Gal(b1-4)GlcNAc(b1-3)Gal(b1-4)GlcNAc(b1-6)[Gal(b1-3)]GalNAc
# Procedure, shortened: as §1
# [10] = molecular target: Gal(b1-4)GlcNAc(b1-3)Gal(b1-4)[Fuc(a1-3)]GlcNAc(b1-3)Gal(b1-4)[Fuc(a1-3)]GlcNAc
# Procedure, shortened: as §1
# [11] = molecular target: Gal(b1-4)GlcNAc(b1-3)GalNAc
# Procedure, shortened: as §1
# [12] = molecular target: Gal(b1-4)GlcNAc(b1-3)[Fuc(a1-3)GlcNAc(b1-6)]Gal(b1-4)Glc
# Procedure, shortened: as §1
# [13] = molecular target: Gal(b1-4)GlcNAc(b1-3)[Gal(b1-4)GlcNAc(b1-6)]Gal(b1-4)GlcNAc
# Procedure, shortened: as §1
# [14] = molecular target: Gal(b1-4)GlcNAc(b1-3)[GlcNAc(b1-6)]Gal(b1-4)GlcNAc
# Procedure, shortened: as §1
# [15] = molecular target: Gal(b1-4)GlcNAc(b1-6)Gal(b1-4)GlcNAc
# Procedure, shortened: as §1
# [16] = molecular target: Gal(b1-4)GlcNAc(b1-6)GalNAc
# Procedure, shortened: as §1
# [17] = molecular target: Gal(b1-4)GlcNAc(b1-6)[Gal(b1-3)]GalNAc
# Procedure, shortened: as §1
# [18] = molecular target: Gal(b1-4)GlcNAc(b1-6)[Gal(b1-4)GlcNAc(b1-3)]GalNAc
# Procedure, shortened: as §1
# [19] = molecular target: Gal(b1-4)GlcNAc6P
# Procedure, shortened: as §1
# [20] = molecular target: Gal(b1-6)Gal
# Procedure, shortened: as §1
# [21] = molecular target: Gal3S(b1-3)GalNAc
# Procedure, shortened: as §1
# [22] = molecular target: Gal3S(b1-3)GlcNAc
# Procedure, shortened: as §1
# [23] = molecular target: Gal3S(b1-3)[Fuc(a1-4)]GlcNAc
# Procedure, shortened: as §1
# [24] = molecular target: Gal3S(b1-4)Glc
# Procedure, shortened: as §1
# [25] = molecular target: Gal3S(b1-4)Glc6S
# Procedure, shortened: as §1
# [26] = molecular target: Gal3S(b1-4)GlcNAc
# Procedure, shortened: as §1
# [27] = molecular target: Gal3S(b1-4)[Fuc(a1-3)]Glc6S
# Procedure, shortened: as §1
# [28] = molecular target: Gal3S(b1-4)[Fuc(a1-3)]GlcNAc
# Procedure, shortened: as §1
# [29] = molecular target: Gal3S(b1-4)[Fuc(a1-3)]GlcNAc6S
# Procedure, shortened: as §1
# [30] = molecular target: Gal3S4S(b1-4)GlcNAc
# Procedure, shortened: as §1
# [31] = molecular target: Gal3S6S(b1-4)GlcNAc
# Procedure, shortened: as §1
# [32] = molecular target: Gal3S6S(b1-4)GlcNAc6S
# Procedure, shortened: as §1
# [33] = molecular target: Gal4S(b1-4)GlcNAc
# Procedure, shortened: as §1
# [34] = molecular target: Gal4S6S(b1-4)GlcNAc
# Procedure, shortened: as §1
# [35] = molecular target: Gal6P(b1-4)GlcNAc
# Procedure, shortened: as §1
# [36] = molecular target: Gal6S(b1-3)GlcNAc
# Procedure, shortened: as §1
# [37] = molecular target: Gal6S(b1-3)GlcNAc6S
# Procedure, shortened: as §1
# [38] = molecular target: Gal6S(b1-4)Glc
# Procedure, shortened: as §1
binder,measurement,setting,value
"SspB C123 (Streptococcus gordonii), Q54186 (protein) MAHFHYSSLLAQPQINKEIKNEDGVDIDRTLVAKQSIGKFELKTEALTAGRPKTTSFVLVDPLPTGYKFDLDATKAASTGFDTTYDEASHTVTFKATDETLATYNADLTKPVETLHPTVVGRVLNDGATYTNNFTLTVNDAYGIKSNVVRVTTPGKPNDPDNPNNNYIKPTKVNKNKEGLNIDGKEVLAGSTNYYELTWDLDQYKGDKSSKEAIQNGFYYVDDYPEEALDVRPDLVKVADEKGNQVSGVSVQQYDSLEAAPKKVQDLLKKANITVKGAFQLFSADNPEEFYKQYVSTGTSLVITDPMTVKSEFGKTGGKYENKAYQIDFGNGYATEVVVNNVPKITPKKDVTVSLDPTSENLDGQTVQLYQTFNYRLIGGFIPQNHSEELEDYSFVDDYDQAGDQYTGNYKTFSSLNLTMKDGSVIKAGTDLTSQTTAETDATNGIVTVRFKEDFLQKISLDSPFQAETYLQMRRIAIGTFENTYVNTVNKVAYASAAALEHHHHHH",glycan array binding signal (z-score),[1],1.48
same,glycan array binding signal (z-score),[2],-0.338
same,glycan array binding signal (z-score),[3],0.731
same,glycan array binding signal (z-score),[4],0.993
same,glycan array binding signal (z-score),[5],2.74
same,glycan array binding signal (z-score),[6],0.305
same,glycan array binding signal (z-score),[7],-0.361
same,glycan array binding signal (z-score),[8],1.18
same,glycan array binding signal (z-score),[9],0.953
same,glycan array binding signal (z-score),[10],-0.759
same,glycan array binding signal (z-score),[11],0.085
same,glycan array binding signal (z-score),[12],-1.21
same,glycan array binding signal (z-score),[13],0.15
same,glycan array binding signal (z-score),[14],0.826
same,glycan array binding signal (z-score),[15],-0.52
same,glycan array binding signal (z-score),[16],0.597
same,glycan array binding signal (z-score),[17],0.155
same,glycan array binding signal (z-score),[18],-0.8
same,glycan array binding signal (z-score),[19],-0.006
same,glycan array binding signal (z-score),[20],-0.548
same,glycan array binding signal (z-score),[21],0.761
same,glycan array binding signal (z-score),[22],0.104
same,glycan array binding signal (z-score),[23],0.284
same,glycan array binding signal (z-score),[24],1.06
same,glycan array binding signal (z-score),[25],0.314
same,glycan array binding signal (z-score),[26],0.468
same,glycan array binding signal (z-score),[27],5.71
same,glycan array binding signal (z-score),[28],0.31
same,glycan array binding signal (z-score),[29],-0.848
same,glycan array binding signal (z-score),[30],-1.45
same,glycan array binding signal (z-score),[31],-0.215
same,glycan array binding signal (z-score),[32],0.951
same,glycan array binding signal (z-score),[33],0.608
same,glycan array binding signal (z-score),[34],-1.05
same,glycan array binding signal (z-score),[35],-0.314
same,glycan array binding signal (z-score),[36],-1.3
same,glycan array binding signal (z-score),[37],-1.61
same,glycan array binding signal (z-score),[38],0.321

# For reference, some entries already given.
binder,measurement,setting,value
"SspB C123 (Streptococcus gordonii), Q54186 (protein) MAHFHYSSLLAQPQINKEIKNEDGVDIDRTLVAKQSIGKFELKTEALTAGRPKTTSFVLVDPLPTGYKFDLDATKAASTGFDTTYDEASHTVTFKATDETLATYNADLTKPVETLHPTVVGRVLNDGATYTNNFTLTVNDAYGIKSNVVRVTTPGKPNDPDNPNNNYIKPTKVNKNKEGLNIDGKEVLAGSTNYYELTWDLDQYKGDKSSKEAIQNGFYYVDDYPEEALDVRPDLVKVADEKGNQVSGVSVQQYDSLEAAPKKVQDLLKKANITVKGAFQLFSADNPEEFYKQYVSTGTSLVITDPMTVKSEFGKTGGKYENKAYQIDFGNGYATEVVVNNVPKITPKKDVTVSLDPTSENLDGQTVQLYQTFNYRLIGGFIPQNHSEELEDYSFVDDYDQAGDQYTGNYKTFSSLNLTMKDGSVIKAGTDLTSQTTAETDATNGIVTVRFKEDFLQKISLDSPFQAETYLQMRRIAIGTFENTYVNTVNKVAYASAAALEHHHHHH",glycan array binding signal (z-score),[14],0.826
same,glycan array binding signal (z-score),[15],-0.52
